In patent US20090305254:

Test system: IgE
Assay: SPR
Details: biotinylated aptamer on SA chip, PBS with 1 mM MgCl2 pH 7.4; concentration-dependent signal; electrophoresis shows IgE displaces 14-mer capture oligonucleotide (SEQ 6); purified native protein; label: biotin (SPR); single-stranded DNA

TCACGTTTATCCGTCCCTCCTAGTGGCGTGA [CaAp-1 IgE-binding aptamer]
binding result: binds

For at least one entry, the source does not settle the construct or the ends of the probe.
